No constants are given. Whether binding was seen depends on the method and setting. Some entries that bind do so weakly or less than the wild type.
Experiments:
[1] = biological target: T1, CLL-1 on the surface of CLL-1-positive AML cell lines (HL-60 WT, U937) (human) (UniProt Q5QGZ9); test: multi-point flow cytometry, HL-60 cell surface
T1 sequence (looked up): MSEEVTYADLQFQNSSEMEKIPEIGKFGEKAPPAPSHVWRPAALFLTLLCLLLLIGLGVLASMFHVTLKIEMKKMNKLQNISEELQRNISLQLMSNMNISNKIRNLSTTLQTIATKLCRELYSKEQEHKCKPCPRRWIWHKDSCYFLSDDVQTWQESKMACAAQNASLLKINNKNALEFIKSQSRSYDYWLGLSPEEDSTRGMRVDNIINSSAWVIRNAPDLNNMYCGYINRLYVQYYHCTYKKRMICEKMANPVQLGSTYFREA

[2] = biological target: T1, CLL-1 on the surface of CLL-1-positive AML cell lines (HL-60 WT, U937) (human); test: flow cytometry, HL-60, 200 nM; secondary-only line about 2x10^3
[3] = biological target: T1, CLL-1 on the surface of CLL-1-positive AML cell lines (HL-60 WT, U937) (human); test: flow cytometry, U-937, 200 nM; secondary-only line about 2.5x10^3
[4] = biological target: T2, biotinylated recombinant CLL-1 extracellular domain (ECD) protein (UniProt Q5QGZ9); test: composite data of the binding assays (FIGS. 12A and 12B)
T2 sequence (biotinylated (site not stated), looked up): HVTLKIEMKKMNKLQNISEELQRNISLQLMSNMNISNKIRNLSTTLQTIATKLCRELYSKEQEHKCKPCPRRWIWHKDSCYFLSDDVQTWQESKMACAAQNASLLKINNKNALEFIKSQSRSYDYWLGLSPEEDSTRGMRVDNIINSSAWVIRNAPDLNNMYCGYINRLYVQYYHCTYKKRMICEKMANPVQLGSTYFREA

Measured: binding

B1: Anti-CLL-1 Binder Clone 38 (scFv, not shown: small tags and cut ends)
scFv: DIQMTQSPSTLSASVGDRVTITCRASQSISSWLAWYQQKPGKAPKLLIYTASSLQSGVPSRFSGSESGTDFTLTISSLQPEDFATYYCQQSYSTPLTFGGGTKVDIKGGGGSGGGGSGGGGSQVQLVQSGAEVKKPGASVKVSCKASGYTFTGYYMHWVRQAPGQGLEWMGWINPNSGGTNYAQKFQGRVTLTRDTSITTAYLELTSLTSDDTAVYYCARGDTGDFFDHWGQGTLVTVSS
binds: [1] | [2] | [3] | [4]

B2: Anti-CLL-1 Binder Clone 40 (scFv, not shown: small tags and cut ends)
scFv: QSVLTQPPSVSAAPGQKVTISCSGSSSNIGNNYVSWYQQLPGTAPKLLIYDNNKRPSGIPDRFSGSESGTSATLGITGLQTGDEADYYCGTWDSSLSAWVFGGGTQLIILGGGGSGGGGSGGGGSQVQLQQSGPGLVKPSQTLSLTCAISGDSVSSNSAAWNWIRQSPSRGLEWLGRTHYRSKWYNDYAVSVKSRITISADTSKNQFSLQLNSVTPEDTAVYYCARDRYTVRPDAFDIWGQGTTVTVSS
binds: [1] | [2] | [3]

B3: Anti-CLL-1 Binder Clone 2 (scFv, not shown: small tags and cut ends)
scFv: QSVLTQPLSVSVALGQTARITCGGNNIGSKNVHWYQQKAGQAPVLVIQRDSNRPSGIPERFSGSNSGNTATLTISRAQAGDEADYFCQVWDSNTYVFGTGTKLTVLGGGGSGGGGSGGGGSEVQLVESGGGLVKPGGSLRLSCAASGFTFSDYYMSWIRQAPGKGLEWVSYISSSGSTIYYADSVKGRFTISRDNAKNSLYLQMNSLRDEDTAVYYCARQSAEIVGAFDHWGQGTMVTVSS
binds: [1] | [2] | [3]

B4: Anti-CLL-1 Binder Clone 4 (scFv, not shown: small tags and cut ends)
scFv: QSVVTQPPSVSAAPGQKVTISCSGSSPNIGKNYVSWYQQLPGTAPKLLIYDNNKRPSGIPDRFSGSKSGTSATLGITGLQTGDEADYYCGTWDSSLSGYVFGTGTKVTVLGGGGSGGGGSGGGGSQVQLVESGGGVVQPGRSLRLSCAASGFTFSSYGMHWVRQAPGKGLEWVAFISHDGSNKYYADSVKGRSTISRDNSKSTLFLQMNSLRDEDTAVYFCAREGQLTTSWDFFDYWGHGTLVTVSS
binds: [1] | [2] | [3]

B5: Anti-CLL-1 Binder Clone 6 (scFv, not shown: small tags and cut ends)
scFv: QSVLTQPPSVSAAPGQKVSIFCSGGSSNIGKNYVSWYQQLPGTAPKLLIYENQHRPSGIPDRFSGSKSGTSATLGITGLQTGDEADYYCATWDDSLSAGVFGGGTELTVLGGGGSGGGGSGGGGSQLVQSGAEVRKPGESLKISCKGSGYSFTSYWIGWVRQMPGKGLEWMGFIYPGDSDTRYSPSFQGQVTISADKSISTAYLQRSSLKASDTAMYYCARLGGYSGYDSEVFYLDYWGQGTTVTVSS
binds: [1] | [2] | [3] | [4]

B6: Anti-CLL-1 Binder Clone 10 (scFv, not shown: small tags and cut ends)
scFv: DIQMTQSPSFLSASVGDRVTITCRASQGISSYLAWYQQKPGKAPKLLIYSASSLQSGVPSRFSGSGSGTDFTLTISSLQPEDFATYYCQQSYNSPTFGQGTRLEIKGGGGSGGGGSGGGGSQVQLVQSGAEVKKPGASVKVSCKASGYTFTGYYMHWVRQAPGQGLEWMGWMNPNSGNTGYAQKFQGRVTMTRNTSISTAYLELTSLTSDDTAVYYCARGDTGDFFDHWGQGTLVTVSS
binds: [1] | [2] | [3]

B7: Anti-CLL-1 Binder Clone 11 (scFv, not shown: small tags and cut ends)
scFv: QSVLTQPASVSGSPGQSITISCTGTSSDVGASNSVSWYQRHPGKPPKLMIYDVSNRPSGISNRFSGSKSGNTASLTISGLQSEDEADYYCSSYTGSSTFVVFGGGTQLIILGGGGSGGGGSGGGGSEVQLVESGGGVVQPGGSLRLSCAASGFTFSSYWMSWVRQAPGKGLEWVANIRQDGSEKYYVDSVKGRFTISRDNAKNSLYLQMNSLRAEDAAVYYCAREQDTAMVAFDYWGQGTLVTVSS
binds: [1] | [2] | [3] | [4]

B8: Anti-CLL-1 Binder Clone 12 (scFv, not shown: small tags and cut ends)
scFv: DIQMTQSPSSLSASVGDRVTITCQASQDISNYLNWYQQKPGKAPKLLIYDASNLETGVPSRFSGSGSGTDFTLTISSPQPEDLATYYCQQANSFPFTFGQGTKVEIKGGGGSGGGGSGGGGSQVQLVQSGAEVKKPGSSVKVSCKASGYSFTRNDITWVRQANGRGLEWLGRLNPNNGDTVYAEVFQGRVAMTRDTSTDTAYMELASLKSDDTAVYFCARGFWSFDVWGQGTMVTVSS
binds: [1] | [2] | [3]

B9: Anti-CLL-1 Binder Clone 20 (VHH, not shown: small tags and cut ends)
VHH: QVQLVQSGGGLVQPGGSLRLSCAASDFSFSYYEMSWVRQAPGKGLEWVSTISGSGDSTYYADSVKGRFTISRDNTKNTLYLQMNTLRAEDTATYYCMTDGETWGTHRYTVYWGQGALVTVSS
binds: [1] | [2] | [3] | [4]

Reference: patent US20250333515A1
